The campaign covered roughly 1,100 compounds. About 860 (78%) were called active. So high a share suggests a set chosen from earlier hits. The inconclusive results got no clear call from the source; some entries with a clear call stand among them for comparison. Calls follow the shape of the dose curve; as a rule, active = well fitted activation curve with a large enough effect; inconclusive = small, poorly fitted or top-dose-only effect; inactive = flat fitted curve, though single readings scatter. Potencies beside an inconclusive call are fits to weak or partial responses and may not hold up.
Test: qHTS of Nrf2 Activators: Hit Validation in Primary Assay; also: nearly all actives have a fitted effect of over 70% in size; as to activation: 0% is about no effect
Conditions: Nrf2/ARE reporter cell assay; Potency: activation; series mostly up to 46.1 µM; activation: at the top concentration
Procedure, shortened: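 Luminescence from Steady-Glo lysis reagent, read after 30 min, reported ARE-luciferase activity in AREc32_fluc stable cells. Compounds were tested at several concentrations, incubated 24 h at 37 °C with 5% CO2 following overnight seeding.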
Potency is read from the fitted curve at half-maximal effect.

Structure (SMILES)	activation	Potency
N/C(=N\OC(=O)c1cccc2ccccc12)c1cccnc1	inactive: 5.33%	
COC(=O)c1ccccc1NC(=O)COCc1cc(-c2cccs2)on1		inconclusive: 1.84 µM [activator, partial curve]
Fc1c(F)c(C(F)(F)F)c(F)c(F)c1N/N=C\c1cccs1		inconclusive: 5.17 µM [activator, full curve]
Fc1cc(F)c2nc(Nc3nc4cc5c(cc4s3)OCO5)sc2c1		inconclusive: 2.06 µM [activator, full curve]
N#C/C(=C1/C(=O)Nc2ccc(Br)cc21)c1ccccn1		inconclusive: 7.31 µM [activator, partial curve]
N#CC(C(=O)NCc1ccco1)c1nc2ccccc2nc1N1CCOCC1 (stereo unspecified)		inconclusive: 4.61 µM [activator, partial curve]
O=C(Nc1ccccc1)Nc1cccc2nsnc12		inconclusive: 9.2 µM [activator, partial curve]
O=C(CCCc1ccccc1)Nc1cccc([N+](=O)[O-])c1		inconclusive: 1.84 µM [activator, full curve, poor fit]
O=C(c1ccc(S(=O)(=O)Cc2ccccc2Cl)c([N+](=O)[O-])c1)N1CCOCC1		active: 18.4 µM
CCOc1c(Br)cc(C(N)=O)cc1OCc1ccccc1	inactive: 20.2%	
O=C(CCN1CCC(c2ccccc2)C1)c1ccc2c(c1)OCCO2 (stereo unspecified)		inconclusive: 4.61 µM [activator, single point]
Cc1ccc(NC(=O)/C=C/c2ccc([N+](=O)[O-])s2)cc1		active: 2.31 µM
CSc1nsc(SC)c1NC(=O)Nc1ccccn1		active: 5.17 µM
Cc1nc(C)c(C(=O)N/N=C/c2ccco2)s1		inconclusive: 1.46 µM [activator, full curve]
Clc1ccc(C=Cc2ccccn2)c(Cl)c1		active: 3.66 µM
CSc1ccc(-c2cc(=O)c3ccccc3o2)cc1		active: 2.06 µM
O=C(CSc1nccc(-c2cccs2)n1)Nc1cccc(Cl)c1		active: 2.06 µM
Cn1c(NCc2ccc3occc3c2)nc2cc(-c3cccc(C(F)(F)F)c3)sc2c1=O		inconclusive: 10.3 µM [activator, partial curve]
CN(C)CCCn1c2c3ccccc3ccc2c2oc(=O)c3ccccc3c21		inconclusive: 2.91 µM [activator, full curve]
COc1ccc([N+](=O)[O-])cc1C1NN=C(c2ccccc2O)S1 (stereo unspecified)		active: 2.91 µM
S=c1[nH]nc(-c2ccco2)n1/N=C/c1cccc(Cl)c1Cl		active: 10.3 µM
O=c1[nH]c(/C(Cl)=C/c2cc(Cl)ccc2O)nc2cc(Cl)ccc12		inconclusive: 3.66 µM [activator, single point]
COc1ccc2oc3ccccc3c(=O)c2c1		active: 23.1 µM
O=C(CCN1C(=O)/C(=C/c2ccccc2)SC1=S)N1CCCCCC1		inconclusive: 3.66 µM [activator, single point]
COC1=C(C)C(O)=C(C(=O)/C=C/c2ccccc2)C(=O)C1(C)C		inconclusive: 4.61 µM [activator, single point]
COc1ccc(COc2ccsc2C(=O)Nc2ccc(Cl)cc2)cc1		active: 4.61 µM

Structure (SMILES)	activation	Potency
COc1ccccc1C(=O)COC(=O)c1cccs1		active: 6.51 µM
Cc1ccc(CC2S/C(=N/N=C/c3ccco3)NC2=O)cc1 (stereo unspecified)		inconclusive: 0.731 µM [activator, full curve]
Clc1ccc(/C=C/c2ncc3ccccn23)cc1		inconclusive: 2.59 µM [activator, full curve]
CN(C)/C=N/C1=C(C#N)C(c2cccs2)c2ccc3ccccc3c2O1 (stereo unspecified)		inconclusive: 10.3 µM [activator, partial curve]
COc1ccc(O)c(-c2cc(-c3ccccc3Cl)[nH]n2)c1		active: 2.91 µM
O=C(CSc1nnc(-c2ccco2)c(-c2ccco2)n1)c1ccccc1		active: 5.17 µM
CCC1C/C(=C/c2cccs2)C(=O)/C(=C/c2cccs2)C1 (stereo unspecified)		active: 2.31 µM
CCCn1nc([N+](=O)[O-])c(C(C#N)c2nc3ccccc3s2)c(Cl)c1=O (stereo unspecified)		active: 2.31 µM
O=C(Nc1ccccc1)N1CCn2c1nc1ccccc12		inconclusive: 2.31 µM [activator, full curve]
Oc1ccc(NCc2cccc(OCc3ccc(F)cc3)c2)cc1	inactive: 21.5%	
CC(=O)c1nn(-c2ccccc2)cc1C(=O)c1cccc(Br)c1		inconclusive: 1.16 µM [activator, full curve]
O=C(Nc1ccc(F)cc1)c1sccc1SCc1cccc(C(F)(F)F)c1		inconclusive: 9.2 µM [activator, partial curve]
NC(=S)NN=C1CSSC1		inconclusive: 2.59 µM [activator, single point]
O=C(NC(=S)Nc1ccccc1F)c1ccc(Br)o1		inconclusive: 2.59 µM [activator, full curve]
CCSc1nc2ccccc2n1C(=O)/C=C/c1ccc(OC)c(OC)c1		inconclusive: 3.66 µM [activator, partial curve]
O=C(Nc1ccc(Br)c(C(F)(F)F)c1)c1ccccc1		inconclusive: 3.66 µM [activator, single point]
Clc1nnc(NN=C2CCCC2)c2ccccc12		active: 4.61 µM
CN1CCN(C(=O)/C=C/c2ccc([N+](=O)[O-])o2)CC1		inconclusive: 8.2 µM [activator, partial curve]
O=C(Nc1cccc(F)c1)c1ccco1	inactive: 21.9%	
COc1cc(Br)cc(/C=C/c2ccc3cccc(O)c3n2)c1OC		inconclusive: 2.31 µM [activator, partial curve]
CC1(C)C(=O)OC(/C=C/c2cccc([N+](=O)[O-])c2)C(C)(C)C1=O (stereo unspecified)		active: 1.03 µM
O=C(N/N=C/c1c(O)ccc2ccccc12)Nc1ccccc1		inconclusive: 2.31 µM [activator, full curve, poor fit]
Cc1ccc2oc(-c3cccc(NC(=O)c4ccc(Br)o4)c3)nc2c1		inconclusive: 10.3 µM [activator, partial curve]
CCn1c(=NC(=O)c2ccco2)sc2cccc(F)c21		active: 1.3 µM
O=C(Nc1cccc(NC(=O)c2cccc(Cl)c2)c1)c1cccnc1		inconclusive: 2.31 µM [activator, full curve]
Cc1cccn2c(=O)c3cc(C#N)c(=O)n(-c4nnc(SCc5ccc(Cl)cc5)s4)c3nc12		inconclusive: 8.2 µM [activator, partial curve]

Compounds above that have an NH in an aromatic ring, in the order listed:
Structure (SMILES)	activation	Potency
S=c1[nH]nc(-c2ccco2)n1/N=C/c1cccc(Cl)c1Cl		active: 10.3 µM
O=c1[nH]c(/C(Cl)=C/c2cc(Cl)ccc2O)nc2cc(Cl)ccc12		inconclusive: 3.66 µM [activator, single point]
COc1ccc(O)c(-c2cc(-c3ccccc3Cl)[nH]n2)c1		active: 2.91 µM

Going on with the list:

Structure (SMILES)	activation	Potency
O=C(O)/C=C/C(=O)c1c(-c2ccccc2)[nH]c2ccccc12		inconclusive: 5.8 µM [activator, single point]
COc1ccc2c(c1)Cc1c-2cc(Br)c(N)c1Br		inconclusive: 1.3 µM [activator, full curve]
CSc1nc2sc3c(c2c(=O)n1C)CCC(C)C3 (stereo unspecified)		active: 18.4 µM
Cc1cc2c(cc1C)N(C(=O)CCl)CC(=O)N2		inconclusive: 4.61 µM [activator, single point]
O=C1Nc2cccnc2N(C(=O)CCl)c2ccccc21		inconclusive: 3.66 µM [activator, single point]
C/C(=N\NC(=S)NCC(C)(C)C)c1cc(F)cc(F)c1O	inactive: 7.88%	
O=C1NC(=Nc2ccccc2)S/C1=C\c1ccccc1		inconclusive: 2.31 µM [activator, full curve]
Clc1nc(NCc2ccco2)nc(N2CCCCC2)n1		inconclusive: 1.03 µM [activator, full curve]
COc1ccc([N+](=O)[O-])cc1NC(=O)c1ccco1		active: 5.17 µM
O=C(/C=C/c1ccco1)Nc1ccc(-c2nc3ccccc3[nH]2)cc1		active: 1.3 µM
N#Cc1nc(-c2ccc(F)cc2)oc1NCc1ccco1		inconclusive: 1.16 µM [activator, full curve, poor fit]
NS(=O)(=O)c1ccc(NC(=S)NC(=O)c2cccc(Br)c2)cc1		inconclusive: 0.731 µM [activator, full curve]
O=c1cc(-c2ccccc2)nc2c(Cl)cc(Cl)cn12		active: 3.66 µM
Cc1cccc2nc3c(nc12)-c1ccccc1C3=O		inconclusive: 2.31 µM [activator, full curve]
Fc1cccc(Nc2nc3ccccc3n3cnnc23)c1		inconclusive: 5.17 µM [activator, partial curve]
O=C(NCc1ccco1)c1cccnc1-c1nc2ccccc2s1		inconclusive: 5.17 µM [activator, partial curve]
COc1ccc(C(=O)NCC(=O)N/N=C/C(C)=C/c2ccco2)cc1OC		inconclusive: 0.82 µM [activator, full curve]
COc1cc2c(cc1Cl)/C(=C\CCN(C)C)c1ccccc1S2		inconclusive: 6.51 µM [activator, partial curve]
N#CC1CC(c2ccccc2)=NN1c1ccccc1[N+](=O)[O-] (stereo unspecified)		inconclusive: 2.59 µM [activator, full curve]
O=C(CSc1nc2c(sc3ccccc32)c(=O)n1-c1ccccc1)NCc1ccco1		inconclusive: 2.59 µM [activator, full curve]
Cc1sc(NC(=S)NC(=O)c2ccccc2)c(C#N)c1C	inactive: 17%	
Cn1c(NCC2CCCCC2)nc2cc(-c3ccsc3)sc2c1=O		active: 2.31 µM
O=C(c1nn2c(C(F)(F)F)cc(-c3ccco3)nc2c1Br)N1CCCc2ccccc21		inconclusive: 2.06 µM [activator, full curve]
CS(=O)(=O)Cc1nc2ccccc2oc1=O		active: 20.6 µM

Source: PubChem BioAssay AID651593 (National Center for Advancing Translational Sciences (NCATS), 2012)
